Experimental findings from PubChem BioAssay AID493014 (National Center for Advancing Translational Sciences (NCATS), 2011) are described below.

The nature of this assay: qHTS Assay to Find Inhibitors of Chronic Active B-Cell Receptor Signaling. The conditions noted are these: ABC-DLBCL IkBa-CBG/CBR reporter, luminescence ratio (green luciferase fused to IkBa over red control in TMD8 lymphoma cells), 4 h. The method, boiled down: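 TMD8 human ABC-DLBCL cells with doxycycline-inducible IκBα–green luciferase fusion and unfused red luciferase, in 0.5% FBS medium; compounds up to 46 uM, 4 h at 37C. Green/red luminescence ratio, filter-overlap corrected, fitted to concentration-response curves.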

The mark [1] stands for this setting: measured here: CBR red luminescence, cell number.
Setting [2] is: measured here: IkBa-CBG green luminescence.

The other results are listed elsewhere or left out. Shown are side measurements of this screen, not its main read-out; they come without a call. Compounds called inactive in the main read-out are mostly missing here. The note in brackets gives the kind of curve behind each potency; many fits are weak.

With `COc1ccc(Nc2nc(-c3ccccc3)c3ccccc3n2)cc1`, under setting [1], the AC50 was 10.3 µM [falling, partial curve].

As for `CCCCCCOc1ccc(C(CC(=O)NC)C(=O)O)cc1` (stereo not given), under setting [1], the AC50 is 8.91 µM [rising, partial curve, poor fit].

For `Cc1ccc(/C=N/NC(=O)Cc2c(F)cccc2Cl)s1`, the AC50 under setting [1] was 15.8 µM [falling, single point].

For the compound `COc1ccc(OC)c(NC(=O)CCNC(=O)c2ccco2)c1`, under setting [1], the concentration at half-maximal activity (AC50) is 0.708 µM [falling, partial curve].

As to `Cc1cccc(NC(=O)[C@H](Cc2c[nH]c3ccccc23)NC(=O)[C@@H]2Cc3ccccc3CN2)c1`, the half-maximal activity concentration (AC50) under setting [1] was 12.6 µM [falling, partial curve].

On to `O=C1c2ccccc2C(=O)c2c(NCc3cccnc3)cccc21`, for which the half-maximal activity concentration (AC50) under setting [1] was 28.2 µM [falling, partial curve, poor fit].

For the compound `O=C(CS(=O)(=O)c1ccc(F)cc1)N1CCN(c2ccccc2)CC1`, the half-maximal activity concentration (AC50) under setting [1] was 13 µM [rising, partial curve, poor fit].

For `OCCc1c[nH]c2ccc(OCc3ccccc3)cc12`, under setting [1], the half-maximal activity concentration (AC50) is 1.58 µM [rising, partial curve, poor fit].

As to `CCOc1ccc(CNC(=S)N/N=C\c2ccc([N+](=O)[O-])cc2)cc1`, under setting [2], the concentration at half-maximal activity (AC50) is 23.1 µM [falling, single point].

In the case of `Cc1no[n+]([O-])c1COc1ccccc1/C=C1\NC(=S)NC1=O`, the concentration at half-maximal activity (AC50) under setting [1] is 0.461 µM [falling, full curve, poor fit].

`COCCNC(=O)c1cc(-c2cccs2)on1`: the half-maximal activity concentration (AC50) under setting [1] was 16.4 µM [falling, single point].

For `COc1cccc(NC(=O)c2sc(NC(=O)c3ccncc3)nc2C)c1`, the AC50 under setting [1] is 15.8 µM [falling, partial curve, poor fit].

As for `Cn1nnnc1Sc1ncnc2scc(-c3ccc([N+](=O)[O-])cc3)c12`, the AC50 by setting is: under setting [1], 4.61 µM [rising, single point]; under setting [2], 6.51 µM [falling, single point].

Take `COCc1ccc(O)c2ncccc12`: the concentration at half-maximal activity (AC50) under setting [1] was 29.1 µM [rising, single point] and the AC50 under setting [2] is 4.11 µM [falling, full curve].

For the compound `O=C(Nc1cc([N+](=O)[O-])ccc1O)c1cccc(NC(=O)c2ccco2)c1`, the AC50 under setting [1] is 25.1 µM [falling, single point].

On to `CC(c1ccccn1)N(C)C(=O)c1ccc2nc(Cc3ccccc3F)oc2c1` (stereo not given), for which the half-maximal activity concentration (AC50) under setting [1] was 11.2 µM [rising, partial curve, poor fit].

Consider `Cc1cccc(NC(=O)CNC(=O)COc2ccc(-c3ccc(C#N)cc3)cc2)c1C`, for which the AC50 under setting [1] is 3.66 µM [rising, full curve].

`CC(=O)c1ccc(Nc2nc3ccccc3nc2NS(=O)(=O)c2cccs2)cc1`: under setting [1], the concentration at half-maximal activity (AC50) was 2 µM [rising, full curve].

With `FC(F)(F)c1cccc(N2CCN(C(=S)NC3CCCCC3)CC2)c1`, the AC50 under setting [1] was 29.1 µM [falling, single point].

For `CCOC(=O)Cc1csc(NC(=O)CCCCCN2C(=O)c3ccccc3C2=O)n1`, the AC50 under setting [1] is 35.5 µM [falling, single point].

Take `COc1ccccc1C(C#N)c1cccc(Cl)n1` (stereo not given): under setting [1], the AC50 is 35.5 µM [rising, single point].

In the case of `CC(CC(=O)N1CCN(c2ccccc2)CC1)S(=O)(=O)c1ccc2c(c1)NC(=O)CO2` (stereo not given), the AC50 under setting [1] was 35.5 µM [falling, single point].

On to `O=S(=O)(Nc1ccc(Br)cc1)c1cccc(NC(=S)NCCN2CCOCC2)c1`, for which the AC50 under setting [1] is 20 µM [falling, single point].

Regarding `Cc1cc(C)c2nc(N3C(=O)C(O)=C(C(=O)c4ccco4)C3c3cccc(O)c3)sc2c1` (stereo not given), the AC50 by setting is: under setting [1], 20.6 µM [rising, single point]; under setting [2], 16.4 µM [falling, single point].

For `CC1CCCN(CCCNC(=O)c2cc3c(Cl)nc4ccccc4c3s2)C1` (stereo not given), the AC50 by setting is: under setting [1], 11.2 µM [falling, single point]; under setting [2], 12.6 µM [rising, partial curve, poor fit].

On to `CCc1cccc(CC)c1NC(=S)NCCc1c(C)[nH]c2ccc(C)cc12`, for which the half-maximal activity concentration (AC50) under setting [1] was 29.1 µM [falling, single point] and the half-maximal activity concentration (AC50) under setting [2] is 18.4 µM [rising, partial curve, poor fit].

Regarding `CSc1nc2cc(Oc3cccc(Cl)c3Cl)c(Cl)cc2[nH]1`, the concentration at half-maximal activity (AC50) under setting [1] was 35.5 µM [falling, single point].

Regarding `NCCNC[C@@H]1COC2(CCCCCCCCCCC2)O1`, the concentration at half-maximal activity (AC50) under setting [1] was 10 µM [falling, partial curve, poor fit].

For `CCN1C(=O)CC(N2CCOCC2)C1=O` (stereo not given), under setting [1], the AC50 was 29.1 µM [rising, single point].

For `Cc1ccc(NC(=O)CSc2ccc(S(=O)(=O)N3CCCC3)cn2)cc1F`, under setting [1], the AC50 is 0.731 µM [falling, full curve].

As for `CCCCc1c(C)nc2cc(-c3ccco3)[nH]n2c1=O`, the AC50 under setting [1] was 2.82 µM [falling, partial curve, poor fit].

In the case of `CCOC(=O)c1ccc(NC(=S)NCCc2ccc(F)cc2)cc1`, under setting [1], the half-maximal activity concentration (AC50) is 0.562 µM [falling, full curve].

With `CN(Cc1ccco1)S(=O)(=O)c1nnc(NC(=O)c2ccccc2Cl)s1`, under setting [1], the AC50 is 28.2 µM [rising, single point].

As for `CC(=O)Nc1ccc(Sc2ncccc2C(=O)Nc2ccc(F)cc2)cn1`, the half-maximal activity concentration (AC50) under setting [1] is 7.94 µM [falling, partial curve, poor fit].

As to `O=C(CN1C(=O)C2CC=CCC2C1=O)Nc1nnc(SCc2c(Cl)cccc2Cl)s1` (stereo not given), under setting [1], the AC50 was 23.1 µM [falling, single point].

For `CC12CC(c3ccccc3O1)N(C(=O)c1ccco1)C(=S)N2c1ccc(F)cc1` (stereo not given), the half-maximal activity concentration (AC50) under setting [1] was 35.5 µM [falling, single point].

On to `O=C(CCc1ccccc1)NC1CCS(=O)(=O)C1` (stereo not given), for which the half-maximal activity concentration (AC50) under setting [1] is 5.17 µM [rising, full curve].

`COc1ccc(CSc2nnc(C)n2N)cc1Br`: the AC50 under setting [1] was 12.6 µM [rising, single point].

As to `O=C(CNc1ccc(F)cc1Cl)Nc1cccc(S(=O)(=O)N2CCCCC2)c1`, the concentration at half-maximal activity (AC50) under setting [1] was 16.4 µM [falling, single point] and the concentration at half-maximal activity (AC50) under setting [2] was 20.6 µM [rising, partial curve, poor fit].

With `COCCN1CCn2c(nc3cc(Nc4nnc(C)c5ccccc45)ccc32)C1`, the concentration at half-maximal activity (AC50) under setting [1] was 35.5 µM [falling, single point].

Regarding `CCCCN(CC)C(=O)Cc1ccc(Br)cc1`, under setting [1], the concentration at half-maximal activity (AC50) is 32.6 µM [rising, single point].

As to `CN(c1ccccc1)c1ccc(/C=C/[N+](=O)[O-])cc1`, the half-maximal activity concentration (AC50) is, setting by setting: under setting [1], 29.1 µM [falling, single point]; under setting [2], 23.1 µM [rising, partial curve, poor fit].

For the compound `CSc1nsc(/C=C/Nc2ccc(C(=O)O)cc2)c1C#N`, under setting [1], the AC50 is 35.5 µM [falling, single point].

Take `O=[N+]([O-])c1ccc(C2=NN(c3ccccc3)C(c3ccco3)C2)cc1` (stereo not given): the AC50 under setting [1] is 3.98 µM [rising, partial curve].

For the compound `O=c1nc2sc3ccccc3n2c(=O)n1-c1ccc(Cl)cc1`, the concentration at half-maximal activity (AC50) under setting [1] is 1.12 µM [falling, full curve].

For `CCCCC(=O)Nc1ccc(Br)cn1`, the AC50 under setting [1] is 23.1 µM [falling, single point].

Consider `COc1ccc2nc(SCC(=O)Nc3ccccc3C)[nH]c2c1`, for which the AC50 under setting [1] was 7.94 µM [falling, partial curve].

As to `CCc1c(C)sc2nc(SCC(=O)Nc3cc(C)on3)n(CCOC)c(=O)c12`, the AC50 under setting [1] was 29.1 µM [rising, single point].

As to `C[C@H](CO)N1C[C@H](C)[C@@H](CN(C)C(=O)Nc2ccc3c(c2)OCO3)Oc2c(NC(=O)Nc3ccc(C(F)(F)F)cc3)cccc2C1=O`, the AC50 under setting [1] was 29.1 µM [falling, single point].

Take `O=C(Nc1ccncc1)Nc1ccccc1Cl`: the concentration at half-maximal activity (AC50) under setting [1] is 10 µM [falling, partial curve, poor fit].

Take `CCCOc1ccc(-c2c(C(=O)N/N=C/c3ccc(C)o3)nnn2-c2nonc2N)cc1`: the AC50 under setting [1] is 7.94 µM [falling, partial curve].

As to `COc1ccc(CC(=O)Oc2cc(C)ccc2C)cc1`, the half-maximal activity concentration (AC50) under setting [1] is 35.5 µM [rising, single point].

`COc1cc(OC)cc(C(=O)Oc2ccc(/C=N/Nc3nc4ccccc4s3)cc2OC)c1`: the AC50 under setting [1] was 0.103 µM [rising, full curve].

On to `CC(C)Sc1nnc(NC(=O)c2ccco2)s1`, for which, under setting [1], the concentration at half-maximal activity (AC50) is 6.31 µM [falling, partial curve, poor fit].

Turning to `O=C(CC(=O)Nc1ccccc1F)Nc1ccccc1F`, the AC50 under setting [1] was 5.01 µM [rising, partial curve, poor fit].

As for `Cc1cccc(-c2noc(CN(C)S(=O)(=O)c3cc(Cl)ccc3Cl)n2)c1`, the AC50 under setting [1] is 8.2 µM [rising, partial curve, poor fit].

For the compound `COc1ccc(/C=C2\SC(=S)N(CCC(=O)Nc3ccc(C(=O)O)cc3)C2=O)cc1OC`, the AC50 under setting [1] is 3.98 µM [falling, full curve].

For the compound `CC(=O)NC1(c2nnnn2CCOC(=O)Nc2ccc(Cl)cc2)CCCCC1`, the half-maximal activity concentration (AC50) under setting [1] was 10 µM [rising, partial curve].

Regarding `CC(C)COc1nc2ccccc2c(=O)n1OCC(=O)O`, the AC50 under setting [1] is 5.17 µM [rising, partial curve, poor fit].

In the case of `O=C(NCc1ccc(Cl)cc1)C1CCCCN1S(=O)(=O)c1ccccc1` (stereo not given), under setting [1], the AC50 is 35.5 µM [falling, single point].

For `COc1cc(C2C3=C(CC(C)(C)CC3=O)N(C)C3=C2C(=O)CC(C)(C)C3)ccc1O`, under setting [1], the AC50 was 6.31 µM [falling, single point].

Take `COc1ccc(C(=O)Nc2cccnc2Sc2ccc(Cl)cc2)cc1`: the AC50 under setting [1] is 6.31 µM [falling, full curve, poor fit].

Take `O=C(NC(=S)Nc1cccc2c(O)cccc12)c1ccco1`: the AC50 under setting [1] is 0.282 µM [falling, full curve, poor fit].
